{"source": "ChEMBL document CHEMBL1687827", "about": "“Profiling the Aspergillus fumigatus proteome in response to caspofungin” (2011)", "assay_type_in_all_cases": "functional", "key": {"Aspergillus fumigatus [1]": {"tested_on": "Aspergillus fumigatus", "assay": "Induction of change in ThiJ/PfpI family protein level in iTRAQ-116 labelled secreted fraction of drug-susceptible Aspergillus fumigatus KU80 delta-akuB at 0.12 ug/ml after 48 hrs in YPD medium by MS (MS/MS) analysis relative to control"}, "Aspergillus fumigatus [2]": {"tested_on": "Aspergillus fumigatus", "assay": "Induction of change in translation elongation factor EF-Tu, putative protein level in iTRAQ-116 labelled secreted fraction of drug-susceptible Aspergillus fumigatus KU80 delta-akuB at 0.12 ug/ml after 48 hrs in YPD medium by MS (MS/MS) analysis relative to control"}, "Aspergillus fumigatus [3]": {"tested_on": "Aspergillus fumigatus", "assay": "Induction of change in ribosomal protein S23 gene expression in drug-susceptible Aspergillus fumigatus KU80 delta-akuB at 0.12 ug/ml after 24 hrs in YPD medium by microarray analysis relative to control"}, "Aspergillus fumigatus [4]": {"tested_on": "Aspergillus fumigatus", "assay": "Induction of change in 40s ribosomal protein s11 protein level in iTRAQ114 labelled secreted fraction of drug-susceptible Aspergillus fumigatus KU80 delta-akuB at 0.12 ug/ml after 24 hrs in YPD medium by MS (MS/MS) analysis relative to control"}, "Aspergillus fumigatus [5]": {"tested_on": "Aspergillus fumigatus", "assay": "Induction of change in hypothetical protein locus AFUA_8G00430 level in iTRAQ-116 labelled secreted fraction of drug-susceptible Aspergillus fumigatus KU80 delta-akuB at 0.12 ug/ml after 48 hrs in YPD medium by MS (MS/MS) analysis relative to control"}, "Aspergillus fumigatus [6]": {"tested_on": "Aspergillus fumigatus", "assay": "Induction of change in mycelial catalase Cat1 protein level in iTRAQ114 labelled cell wall fraction of drug-susceptible Aspergillus fumigatus KU80 delta-akuB at 0.12 ug/ml after 24 hrs in YPD medium by MS (MS/MS) analysis relative to control"}, "Aspergillus fumigatus [7]": {"tested_on": "Aspergillus fumigatus", "assay": "Induction of change in cytosolic small ribosomal subunit S4, putative protein level in iTRAQ114 labelled cell wall fraction of drug-susceptible Aspergillus fumigatus KU80 delta-akuB at 0.12 ug/ml after 24 hrs in YPD medium by MS (MS/MS) analysis relative to control"}, "Aspergillus fumigatus [8]": {"tested_on": "Aspergillus fumigatus", "assay": "Induction of change in 60s ribosomal protein l2 protein level in iTRAQ114 labelled cell wall fraction of drug-susceptible Aspergillus fumigatus KU80 delta-akuB at 0.12 ug/ml after 24 hrs in YPD medium by MS (MS/MS) analysis relative to control"}, "Aspergillus fumigatus [9]": {"tested_on": "Aspergillus fumigatus", "assay": "Induction of change in hypothetical gene locus AFUA_8G00970 expression in drug-susceptible Aspergillus fumigatus KU80 delta-akuB at 0.12 ug/ml after 48 hrs in YPD medium by microarray analysis relative to control"}, "Aspergillus fumigatus [10]": {"tested_on": "Aspergillus fumigatus", "assay": "Induction of change in ATP synthase proteolipid P2, putative gene expression in drug-susceptible Aspergillus fumigatus KU80 delta-akuB at 0.12 ug/ml after 48 hrs in YPD medium by microarray analysis relative to control"}, "Aspergillus fumigatus [11]": {"tested_on": "Aspergillus fumigatus", "assay": "Induction of change in 60S ribosomal protein L9 b gene expression in drug-susceptible Aspergillus fumigatus KU80 delta-akuB at 0.12 ug/ml after 24 hrs in YPD medium by microarray analysis relative to control"}, "Aspergillus fumigatus [12]": {"tested_on": "Aspergillus fumigatus", "assay": "Induction of change in Translation elongation factor eEF-3, putative protein level in iTRAQ-116 labelled cell wall fraction of drug-susceptible Aspergillus fumigatus KU80 delta-akuB at 0.12 ug/ml after 48 hrs in YPD medium by MS (MS/MS) analysis relative to control"}, "Aspergillus fumigatus [13]": {"tested_on": "Aspergillus fumigatus", "assay": "Induction of change in fructose-bisphosphate aldolase, class II protein level in iTRAQ-116 labelled cell wall fraction of drug-susceptible Aspergillus fumigatus KU80 delta-akuB at 0.12 ug/ml after 48 hrs in YPD medium by MS (MS/MS) analysis relative to control"}, "Aspergillus fumigatus [14]": {"tested_on": "Aspergillus fumigatus", "assay": "Induction of change in transaldolase protein level in iTRAQ114 labelled secreted fraction of drug-resistant Aspergillus fumigatus EMFR-S678P at 0.12 ug/ml after 24 hrs in YPD medium by MS (MS/MS) analysis relative to control"}, "Aspergillus fumigatus [15]": {"tested_on": "Aspergillus fumigatus", "assay": "Induction of change in isocitrate dehydrogenase Idp1, putative protein level in iTRAQ-118 labelled cell wall fraction of drug-resistant Aspergillus fumigatus EMFR-S678P at 0.12 ug/ml after 24 hrs in YPD medium by MS (MS/MS) analysis relative to control"}, "Aspergillus fumigatus [16]": {"tested_on": "Aspergillus fumigatus", "assay": "Induction of change in heat shock protein Hsp98/Hsp104/ClpA, putative protein level in iTRAQ-118 labelled cell wall fraction of drug-resistant Aspergillus fumigatus EMFR-S678P at 0.12 ug/ml after 48 hrs in YPD medium by MS (MS/MS) analysis relative to control"}, "Aspergillus fumigatus [17]": {"tested_on": "Aspergillus fumigatus", "assay": "Induction of change in mitochondrial hypoxia responsive domain protein level in iTRAQ-116 labelled secreted fraction of drug-resistant Aspergillus fumigatus EMFR-S678P at 0.12 ug/ml after 48 hrs in YPD medium by MS (MS/MS) analysis relative to control"}, "Aspergillus fumigatus [18]": {"tested_on": "Aspergillus fumigatus", "assay": "Induction of change in Ran-specific GTPase-activating protein 1, putative protein level in iTRAQ-116 labelled secreted fraction of drug-resistant Aspergillus fumigatus EMFR-S678P at 0.12 ug/ml after 48 hrs in YPD medium by MS (MS/MS) analysis relative to control"}, "Aspergillus fumigatus [19]": {"tested_on": "Aspergillus fumigatus", "assay": "Induction of change in Mn superoxide dismutase MnSOD protein level in iTRAQ-116 labelled secreted fraction of drug-resistant Aspergillus fumigatus EMFR-S678P at 0.12 ug/ml after 48 hrs in YPD medium by MS (MS/MS) analysis relative to control"}, "Aspergillus fumigatus [20]": {"tested_on": "Aspergillus fumigatus", "assay": "Induction of change in 14-3-3 family protein ArtA, putative protein level in iTRAQ-116 labelled secreted fraction of drug-resistant Aspergillus fumigatus EMFR-S678P at 0.12 ug/ml after 48 hrs in YPD medium by MS (MS/MS) analysis relative to control"}, "Aspergillus fumigatus [21]": {"tested_on": "Aspergillus fumigatus", "assay": "Induction of change in Mitochondrial hypoxia-responsive domain protein level in iTRAQ-116 labelled cell wall fraction of drug-susceptible Aspergillus fumigatus KU80 delta-akuB at 0.12 ug/ml after 24 hrs in YPD medium by MS (MS/MS) analysis relative to control"}, "Aspergillus fumigatus [22]": {"tested_on": "Aspergillus fumigatus", "assay": "Induction of change in 60S ribosomal protein L11 protein level in iTRAQ114 labelled cell wall fraction of drug-susceptible Aspergillus fumigatus KU80 delta-akuB at 0.12 ug/ml after 24 hrs in YPD medium by MS (MS/MS) analysis relative to control"}, "Aspergillus fumigatus [23]": {"tested_on": "Aspergillus fumigatus", "assay": "Induction of change in allergen Asp F4 protein level in iTRAQ-118 labelled cell wall fraction of drug-susceptible Aspergillus fumigatus KU80 delta-akuB at 0.12 ug/ml after 24 hrs in YPD medium by MS (MS/MS) analysis relative to control"}, "Aspergillus fumigatus [24]": {"tested_on": "Aspergillus fumigatus", "assay": "Induction of change in GPI-anchored cell wall organization protein Ecm33 protein level in iTRAQ-118 labelled cell wall fraction of drug-susceptible Aspergillus fumigatus KU80 delta-akuB at 0.12 ug/ml after 24 hrs in YPD medium by MS (MS/MS) analysis relative to control"}}, "note": "This continues a long series; more values of the same kind are listed elsewhere."}
{"smiles": "CC[C@H](C)C[C@H](C)CCCCCCCCC(=O)N[C@H]1C[C@@H](O)[C@@H](NCCN)NC(=O)[C@@H]2[C@@H](O)CCN2C(=O)[C@H]([C@H](O)CCN)NC(=O)[C@H]([C@H](O)[C@@H](O)c2ccc(O)cc2)NC(=O)[C@@H]2C[C@@H](O)CN2C(=O)[C@H]([C@@H](C)O)NC1=O", "note": "[CASPOFUNGIN]", "values": [{"measurement": "fold change (FC)", "setting": "Aspergillus fumigatus [1]", "result": -5.3}, {"measurement": "fold change (FC)", "setting": "Aspergillus fumigatus [2]", "result": -2.8}, {"measurement": "fold change (FC)", "setting": "Aspergillus fumigatus [3]", "result": 4}, {"measurement": "fold change (FC)", "setting": "Aspergillus fumigatus [4]", "result": 1.2}, {"measurement": "fold change (FC)", "setting": "Aspergillus fumigatus [5]", "result": 4}, {"measurement": "fold change (FC)", "setting": "Aspergillus fumigatus [6]", "result": -1.5}, {"measurement": "fold change (FC)", "setting": "Aspergillus fumigatus [7]", "result": 1.7}, {"measurement": "fold change (FC)", "setting": "Aspergillus fumigatus [8]", "result": 1.7}, {"measurement": "fold change (FC)", "setting": "Aspergillus fumigatus [9]", "result": -2.6}, {"measurement": "fold change (FC)", "setting": "Aspergillus fumigatus [10]", "result": -2.3}, {"measurement": "fold change (FC)", "setting": "Aspergillus fumigatus [11]", "result": 3.6}, {"measurement": "fold change (FC)", "setting": "Aspergillus fumigatus [12]", "result": 2.3}, {"measurement": "fold change (FC)", "setting": "Aspergillus fumigatus [13]", "result": 1.5}, {"measurement": "fold change (FC)", "setting": "Aspergillus fumigatus [14]", "result": -1.41}, {"measurement": "fold change (FC)", "setting": "Aspergillus fumigatus [15]", "result": -1.23}, {"measurement": "fold change (FC)", "setting": "Aspergillus fumigatus [16]", "result": -1.15}, {"measurement": "fold change (FC)", "setting": "Aspergillus fumigatus [17]", "result": -1.07}, {"measurement": "fold change (FC)", "setting": "Aspergillus fumigatus [18]", "result": -1.07}, {"measurement": "fold change (FC)", "setting": "Aspergillus fumigatus [19]", "result": -1.52}, {"measurement": "fold change (FC)", "setting": "Aspergillus fumigatus [20]", "result": -1.15}, {"measurement": "fold change (FC)", "setting": "Aspergillus fumigatus [21]", "result": -16}, {"measurement": "fold change (FC)", "setting": "Aspergillus fumigatus [22]", "result": 2.1}, {"measurement": "fold change (FC)", "setting": "Aspergillus fumigatus [23]", "result": -4.3}, {"measurement": "fold change (FC)", "setting": "Aspergillus fumigatus [24]", "result": -3.2}]}
